{"source": "patent US10772837B2", "about": "“Modified release multi-layer tablet cannabinoid formulations” (CannTab Therapeutics, Limited, priority 2017, dated 2020)", "origin": "cited, not measured here"}
{"smiles": "CCCCCc1cc(O)c2c(c1)OC(C)(C)[C@@H]1CCC(C)=C[C@@H]21", "note": "[Dronabinol, (−)-trans-Δ9-tetrahydrocannabinol]", "values": [{"measurement": "duration of appetite stimulant effect", "setting": "after administration", "result": "≥ 24", "unit": "h"}, {"measurement": "duration of action for psychoactive effects", "setting": "after oral administration", "result": "4 to 6", "unit": "h"}, {"measurement": "onset of action", "setting": "after oral administration", "result": "0.5 to 1", "unit": "h"}, {"measurement": "peak effect (time)", "setting": "after oral administration", "result": "2 to 4", "unit": "h"}]}
